Consider 2 molecules from article doi:10.1101/2024.09.09.612116.

Chains of the proteins cited; added tags and fusions are not shown.
UniProt O75530: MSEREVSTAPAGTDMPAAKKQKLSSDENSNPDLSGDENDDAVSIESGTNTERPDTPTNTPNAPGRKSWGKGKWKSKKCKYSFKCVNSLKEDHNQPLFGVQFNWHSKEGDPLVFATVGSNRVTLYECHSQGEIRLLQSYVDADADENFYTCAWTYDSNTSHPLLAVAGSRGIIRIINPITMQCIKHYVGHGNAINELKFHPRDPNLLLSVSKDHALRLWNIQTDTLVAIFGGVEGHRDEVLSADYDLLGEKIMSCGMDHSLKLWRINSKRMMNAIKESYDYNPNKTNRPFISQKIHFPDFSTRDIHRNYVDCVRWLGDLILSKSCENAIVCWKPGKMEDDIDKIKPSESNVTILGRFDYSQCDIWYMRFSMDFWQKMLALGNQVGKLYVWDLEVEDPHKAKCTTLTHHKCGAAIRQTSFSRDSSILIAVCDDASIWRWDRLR

For assay [1], the target named is T1, GFP-tagged DEK (pcDNA5/FRT/TO DEK-His-GFP, LAP-tag DEK fusion) (UniProt P35659).
T1 sequence: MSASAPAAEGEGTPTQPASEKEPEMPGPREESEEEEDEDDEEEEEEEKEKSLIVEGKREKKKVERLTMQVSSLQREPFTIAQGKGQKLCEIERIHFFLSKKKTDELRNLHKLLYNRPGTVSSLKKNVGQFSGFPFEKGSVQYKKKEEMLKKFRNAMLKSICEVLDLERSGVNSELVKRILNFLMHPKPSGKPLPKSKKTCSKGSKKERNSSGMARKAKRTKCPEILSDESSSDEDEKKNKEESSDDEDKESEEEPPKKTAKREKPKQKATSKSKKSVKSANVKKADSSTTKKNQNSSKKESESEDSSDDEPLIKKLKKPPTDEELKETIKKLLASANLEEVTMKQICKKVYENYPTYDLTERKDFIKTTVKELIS
Put plainly: co-IP.

Assay [2] addresses T2, GFP-tagged DEK (pcDNA5/FRT/TO DEK-His-GFP, LAP-tag DEK fusion), P35659.
T2 chain: T1 sequence
The assay is described as follows: co-IP. The conditions noted are these: remark: other sources report otherwise.

No constants are given. Whether binding was seen depends on the method and setting. Binding seen in cells or lysates may run through a third protein. Some entries that bind do so weakly or less than the wild type. Tags and fused reporters may be left off the sequences shown.

Regarding “EED (PRC2 complex member) of HEK293 cells (from UniProt O75530 1-441)”, the binding entry in assay [1] is “binds”.

B1: endogenous DEK (untagged) of HEK293 cells, P35659 1-375 (protein)
chain: T1 sequence
Regarding B1, the binding result in assay [2] was “binds”.
